Test results published in publication PMC12181301.
Results are given in words; binding and its absence hold for the method and conditions named. Binding seen in cells or lysates may run through a third protein. Some results given as binding are weak or reduced against the parent protein; the word gives no strength.

Chains of the proteins cited; added tags and fusions are not shown.
UniProt P02340: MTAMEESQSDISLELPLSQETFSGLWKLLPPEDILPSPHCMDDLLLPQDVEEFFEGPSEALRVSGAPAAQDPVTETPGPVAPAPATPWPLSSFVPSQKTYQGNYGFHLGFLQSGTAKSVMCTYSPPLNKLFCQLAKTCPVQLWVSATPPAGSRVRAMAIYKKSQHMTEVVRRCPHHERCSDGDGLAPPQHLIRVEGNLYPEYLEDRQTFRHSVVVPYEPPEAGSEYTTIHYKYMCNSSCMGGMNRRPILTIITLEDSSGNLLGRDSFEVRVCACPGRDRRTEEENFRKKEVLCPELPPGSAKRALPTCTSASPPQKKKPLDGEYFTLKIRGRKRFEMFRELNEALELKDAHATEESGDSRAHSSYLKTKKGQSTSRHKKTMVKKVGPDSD

Target: T1, Iron-Sulfur Cluster Assembly Enzyme (ISCU) (mouse (endogenous in RAW264.7 or BMDM)) (UniProt Q9D7P6)
T1 sequence: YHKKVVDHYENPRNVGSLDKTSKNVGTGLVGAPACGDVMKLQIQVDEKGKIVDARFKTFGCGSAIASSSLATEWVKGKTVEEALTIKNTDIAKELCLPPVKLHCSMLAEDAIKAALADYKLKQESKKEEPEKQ
Assay: co-IP; whole-cell lysates of macrophages (M0 or M2 polarised; si-NC or si-ISCU) incubated with 1 ug antibody overnight at 4 C, then protein A/G agarose beads for 4 h at 4 C; immunoblot of the immunoprecipitates

binding: binds
Substance: p53 protein (from UniProt P02340 1-390)
